Not every detail of the peptide structures is certain; ends, links or a residue may be inferred.
Experiments:
[1] = system: symptom complexes including joint pain, muscle aches, fevers, chills, and upper respiratory symptoms; test: Example 17: treatment of symptom complexes; assay type: in vivo, human; settings: IM or intranasally 100 μg 5-10 days
[2] = system: Herpes Zoster; test: Treatment of patients with Herpes Zoster; assay type: in vivo, human; settings: in combination with conventional interferon treatment
[3] = system: leprosy (Hansen's disease); test: Patients with leprosy; assay type: in vivo, human; settings: IM or intranasally single daily 100 ug for 5 days with conventional therapy
[4] = Example 34: pregnant women; assay type: in vivo, human; settings: IM or intranasally 100 ug daily for 5-10 days
[5] = system: wound healing; test: Example 25: wound healing; assay type: in vivo; settings: intranasally or IM
[6] = system: lymphangitis; test: Treatment of lymphangitis; assay type: in vivo; settings: 100 μg IM, intranasally, or intralymphatically
[7] = system: periapical granulomas; test: Treatment of patients with periapical granulomas; assay type: in vivo, human; settings: 100 μg into the foramen at the base of the tooth, or in the filling paste, during 3 days
[8] = system: antibiotic-resistant staphylococci; test: Patients with chronic skin diseases caused by antibiotic-resistant staphylococci; assay type: in vivo, human; settings: patients with signs of secondary T-immunodeficiency; IM or intranasally 100 μg daily for 5 days
[9] = system: allergic reactions; test: Patients treated with antibiotics with unfavorable allergological history; assay type: in vivo, human; settings: IM or intranasally single daily 100 μg for 5-10 days
[10] = system: psoriasis; test: Treatment of patients with psoriasis; assay type: in vivo, human; settings: 100 μg IM or intranasally for 10 days
[11] = system: cutaneous burns; test: Patients with cutaneous burns; assay type: in vivo, human; settings: IM or intranasally
[12] = system: various eye problems; test: Treatment of patients with various eye problems; assay type: in vivo, human; settings: intra ocularly 18 μg for 5 days, or drops into conjunctival cavity bid for 5 days; added to conventional treatment
[13] = system: radiation injuries; test: Treatment of immunosuppressed individuals with radiation injuries; assay type: in vivo, human
[14] = system: wounds of various origin, type and localization; test: Patients with wounds of various origin; assay type: in vivo, human; settings: IM or topically single daily 100 μg for 10 days
[15] = system: various allergies; test: Treatment of patients with various allergies; assay type: in vivo, human; settings: 1 μg/kg IM or intranasally for 5-7 days
[16] = system: tropical malaria; test: Patients with relapsing forms of tropical malaria; assay type: in vivo, human; settings: 100 ug single daily IM or intranasally for 5-10 days
[17] = system: gingival disease; test: Treatment of gingival disease; assay type: in vivo, human
[18] = system: sinuses; test: Treatment of patients with affected sinuses; assay type: in vivo, human; settings: IM, intranasally, and installation into sinuses, 1 μg/kg for 3-10 days
[19] = system: chronic osteomyelitis; test: Patients with chronic osteomyelitis; assay type: in vivo, human; settings: IM or intranasally single daily 100 ug for 10 days
[20] = system: bronchial asthma; test: Patients with bronchial asthma; assay type: in vivo, human; settings: IM single daily 1 ug/kg for 5-10 days
[21] = system: bone fractures of various origin, type and localization; test: Patients with bone fractures; assay type: in vivo, human; settings: intramuscularly or intranasally single daily at 100 up for 10 days
[22] = system: frostbite to the extremities; test: Patients with frostbite to the extremities; assay type: in vivo, human; settings: IM or intranasally
[23] = system: herpetic lesions; test: Treatment of patients with herpetic lesions; assay type: in vivo, human
[24] = system: bone-marrow compromise; test: Treatment in bone-marrow compromise (transplant or radiation exposure); assay type: in vivo; settings: IM or intranasally
[25] = system: massive hemotransfusions; test: Treatment of patients exposed to massive hemotransfusions; assay type: in vivo, human; settings: from day 4-6 post-operative, single daily IM or intranasally 100 μg for 5 days
[26] = system: Toxemia of first and second half of pregnancy; test: Pregnant women with Toxemia; assay type: in vivo, human; settings: IM and intranasally 100 ug daily for 5-10 days
[27] = system: AIDS; test: Treatment of individuals infected with AIDS; assay type: in vivo, human; settings: sodium salt in sterile saline IM, infralymphatically or intranasally each day for 5-10 days every 30 days
[28] = system: complications and side effects related to chemotherapy; test: Patients treated simultaneously with chemotherapy; assay type: in vivo, human; settings: simultaneously during the administration of chemotherapy

For `CC[C@H](C)[C@H](N)C(=O)N[C@@H](Cc1c[nH]c2ccccc12)C(=O)O` [Ile-Trp, L-Ile-L-Trp], the symptom complexes [1] was “accelerated reduction in symptom complexes including joint pain, muscle aches, fevers, chills, and upper respiratory symptoms”, the “foci of herpetic infection” value ([2]; single daily IM or intranasal 100 μg for 10 days) was “accelerated regression of foci of herpetic infection” and the relapses and healing ([2]; versus interferon alone) was “prevention of relapses, and some healing occurred earlier than control groups”. The clinical outcome [3] was “resolution of the lesions and prevented relapses, and promotes more rapid healing of specific ulcers”, the “signs of clinical improvement” value [4] was “resolution of weakness, dizziness, and increased appetite, and the normalization of the immunological and hematological indices” and the wound healing [5] was “accelerates wound healing, resulting in statistically fewer infections and reduced escar”. The advance of lymphangitis [6] was “controls the advance of lymphangitis”, the clinical outcome [7] was “accelerated arrestation of the inflammatory process, reduction in pain, and increases stability of the underlying dental structures as evidenced by x-ray studies” and the staphylococci antibiotic sensitivity [8] was “sensitivity to one, few or all antibiotics is increased”. The allergic reactions [9] was “prevents the arising of allergic reactions or promotes the less severe course in most cases”, the clinical outcome [10] was “improvement in most of the patients, and total recovery in some of the patients” and the wound healing [11] was “Accelerated wound healing, diminished frequency of infections, and less escar”. For the same compound, the clinical outcome [12] was “more rapid arresting of the inflammatory process and the increase in visual acuity, and the decrease of duration of treatment”, the immunological indices [13] was “excellent restoration of immunological indices” and the wound healing [14] was “speeds up (when compared to the control group) significantly wound healing, reduces therapy duration and prevents the development of infectious complications”. For the same compound, the allergic reactions [15] was “disappearance of allergic reactions”, the clinical outcome [16] was “reduction of hepatolineal syndrome, the normalization of hematological and immunological indices, reduction of fever, and prevention of relapses” and the “bleeding, inflammatory processes, purulent discharge” value ([17]; 100 μg IM, subcutaneously, or by electrophoresis) was “arresting of bleeding, more rapid restoration of inflammatory processes, and the decrease of purulent discharge”. For the same compound, the recurrences ([17]; in vivo) was “fewer recurrences and prolongation of normal gums”, the gingival disease ([17]; subcutaneous administration in the area of the gingiva) was “arresting of gingival disease” and the clinical outcome [18] was “normalization of nasal breathing, the disappearance of nasal mucous swelling, the arresting of exudates from affect sinuses, and improved general condition and immune status”. The clinical course [19] was “pronounced positive influence on clinical course, expressed by a significant decrease of intoxication syndrome and pain syndrome, disappearance of purulent inflammatory manifestations, speeding up of wound healing, reduction of destruction areas, prevention of relapses”, the “bronchial obstruction and laryngotracheitis” value [20] was “significant reduction in bronchial obstruction and laryngotracheitis” and the clinical symptoms [20] was “less severe clinical symptoms”. For the same compound, the “fever and duration of treatment” value [20] was “normalization of fever, and the reduction in duration of treatment”, the consolidation of fractures [21] was “accelerates essentially (in comparison with the control group) the consolidation of fractures, prevents the development of infectious complications, reduces pain syndrome and treatment duration” and the healing [22] was “Rapid healing and restoration of tissue integrity”. For the same compound, the lesion outbreaks ([23]; in combination with interferon) was “a lessening of lesion outbreaks”, the “recurrence of herpetic lesions” value ([23]; topically, IM, or intranasally) was “marked reduction of recurrence of herpetic lesions, with substantial reduction in the period between outbreaks” and the “immune parameters and post-operative complications” value [24] was “improved immune parameters, functional activity of lymphocytes and neutrophils, and reduction of post-operative complications and infections associated with bone-marrow compromise”. The “clinical manifestation of allogeneic rejection” value [25] was “do not show clinical manifestation of allogeneic rejection”, the clinical outcome [26] was “BP normalized, and peripheral edema is reduced with normalization of the blood chemistry profile, and the restoration of initially altered immunologic indices” and the immunologic indices [27] was “restoring normal immunologic indices, including T-cell functional activity and T4/T8 ratios”. The “complications and side effects related to chemotherapy” value [28] was “fewer complications and side effects related to chemotherapy including diminished frequency and intensity of ulcerative lesions, nausea, and other related problems of chemotherapy administration”.

Reference: patent publication US5789384A, “Pharmaceutical dipeptide compositions and methods of use thereof” (priority 1995, dated 1998)
